Consider 40 targets from the supplement of paper PMC10849652.

Sequences of proteins named here, by UniProt entry; tags and fusion partners are left off. A change or cut given only in a name is not applied to a line headed by its entry.
UniProt Q8NG11: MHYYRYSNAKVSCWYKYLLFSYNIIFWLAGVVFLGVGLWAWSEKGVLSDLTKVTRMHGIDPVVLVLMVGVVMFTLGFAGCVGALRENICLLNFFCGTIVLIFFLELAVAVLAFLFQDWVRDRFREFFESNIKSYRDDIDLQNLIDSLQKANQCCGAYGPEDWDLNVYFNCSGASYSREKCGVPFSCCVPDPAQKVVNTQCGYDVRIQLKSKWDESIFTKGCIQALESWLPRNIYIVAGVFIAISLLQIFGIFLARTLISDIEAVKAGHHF
UniProt Q9BVA1, whole entry, looked up: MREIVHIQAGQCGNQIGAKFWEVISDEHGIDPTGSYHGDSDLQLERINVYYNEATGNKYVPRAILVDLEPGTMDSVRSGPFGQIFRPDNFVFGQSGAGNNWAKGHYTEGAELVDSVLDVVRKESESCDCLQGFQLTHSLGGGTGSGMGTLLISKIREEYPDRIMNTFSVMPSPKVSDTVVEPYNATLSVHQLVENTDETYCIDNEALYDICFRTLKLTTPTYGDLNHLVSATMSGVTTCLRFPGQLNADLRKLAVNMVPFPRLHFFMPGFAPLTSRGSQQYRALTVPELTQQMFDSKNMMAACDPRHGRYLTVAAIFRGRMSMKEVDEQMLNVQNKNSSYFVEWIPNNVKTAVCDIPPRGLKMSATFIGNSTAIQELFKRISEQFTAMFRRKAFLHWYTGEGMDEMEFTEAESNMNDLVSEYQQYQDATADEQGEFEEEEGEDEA
UniProt Q96J42: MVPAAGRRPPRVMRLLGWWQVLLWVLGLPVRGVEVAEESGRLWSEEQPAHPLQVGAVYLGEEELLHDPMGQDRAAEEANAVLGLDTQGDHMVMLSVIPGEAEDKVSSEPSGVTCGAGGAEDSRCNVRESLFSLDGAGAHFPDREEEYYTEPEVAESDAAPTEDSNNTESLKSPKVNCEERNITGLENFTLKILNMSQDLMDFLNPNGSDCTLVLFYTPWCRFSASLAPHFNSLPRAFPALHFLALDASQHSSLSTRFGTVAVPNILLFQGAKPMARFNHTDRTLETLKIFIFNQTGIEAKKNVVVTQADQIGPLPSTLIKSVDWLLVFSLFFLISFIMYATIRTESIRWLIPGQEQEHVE
UniProt Q9BTX7: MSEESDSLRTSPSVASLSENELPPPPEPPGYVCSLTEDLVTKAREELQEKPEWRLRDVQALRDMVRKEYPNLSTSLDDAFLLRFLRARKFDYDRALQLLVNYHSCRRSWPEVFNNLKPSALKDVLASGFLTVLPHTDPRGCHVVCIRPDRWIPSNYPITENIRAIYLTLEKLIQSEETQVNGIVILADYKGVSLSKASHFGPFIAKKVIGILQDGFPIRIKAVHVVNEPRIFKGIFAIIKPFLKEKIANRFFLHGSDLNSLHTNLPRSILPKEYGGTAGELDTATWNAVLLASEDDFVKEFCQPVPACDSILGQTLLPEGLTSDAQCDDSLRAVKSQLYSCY
UniProt Q99614: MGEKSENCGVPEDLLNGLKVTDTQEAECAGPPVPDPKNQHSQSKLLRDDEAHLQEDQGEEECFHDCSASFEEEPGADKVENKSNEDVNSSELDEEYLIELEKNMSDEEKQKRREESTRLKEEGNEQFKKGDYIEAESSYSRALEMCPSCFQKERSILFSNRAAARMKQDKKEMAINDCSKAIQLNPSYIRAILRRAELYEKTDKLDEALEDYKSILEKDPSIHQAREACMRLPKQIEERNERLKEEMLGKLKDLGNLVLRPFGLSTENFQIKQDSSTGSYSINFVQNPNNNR
UniProt Q969M7: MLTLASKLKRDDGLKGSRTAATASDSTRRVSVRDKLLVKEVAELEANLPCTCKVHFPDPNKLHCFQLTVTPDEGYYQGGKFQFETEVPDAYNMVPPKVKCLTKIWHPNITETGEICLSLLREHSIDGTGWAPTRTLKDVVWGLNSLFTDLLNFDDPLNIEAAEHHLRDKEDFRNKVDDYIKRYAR
UniProt P49459, whole entry, looked up: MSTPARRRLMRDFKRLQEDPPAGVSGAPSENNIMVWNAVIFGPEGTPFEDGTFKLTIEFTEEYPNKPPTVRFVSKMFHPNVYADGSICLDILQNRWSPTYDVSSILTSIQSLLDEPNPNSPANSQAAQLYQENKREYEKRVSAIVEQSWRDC
UniProt Q9BSJ2, whole entry, looked up: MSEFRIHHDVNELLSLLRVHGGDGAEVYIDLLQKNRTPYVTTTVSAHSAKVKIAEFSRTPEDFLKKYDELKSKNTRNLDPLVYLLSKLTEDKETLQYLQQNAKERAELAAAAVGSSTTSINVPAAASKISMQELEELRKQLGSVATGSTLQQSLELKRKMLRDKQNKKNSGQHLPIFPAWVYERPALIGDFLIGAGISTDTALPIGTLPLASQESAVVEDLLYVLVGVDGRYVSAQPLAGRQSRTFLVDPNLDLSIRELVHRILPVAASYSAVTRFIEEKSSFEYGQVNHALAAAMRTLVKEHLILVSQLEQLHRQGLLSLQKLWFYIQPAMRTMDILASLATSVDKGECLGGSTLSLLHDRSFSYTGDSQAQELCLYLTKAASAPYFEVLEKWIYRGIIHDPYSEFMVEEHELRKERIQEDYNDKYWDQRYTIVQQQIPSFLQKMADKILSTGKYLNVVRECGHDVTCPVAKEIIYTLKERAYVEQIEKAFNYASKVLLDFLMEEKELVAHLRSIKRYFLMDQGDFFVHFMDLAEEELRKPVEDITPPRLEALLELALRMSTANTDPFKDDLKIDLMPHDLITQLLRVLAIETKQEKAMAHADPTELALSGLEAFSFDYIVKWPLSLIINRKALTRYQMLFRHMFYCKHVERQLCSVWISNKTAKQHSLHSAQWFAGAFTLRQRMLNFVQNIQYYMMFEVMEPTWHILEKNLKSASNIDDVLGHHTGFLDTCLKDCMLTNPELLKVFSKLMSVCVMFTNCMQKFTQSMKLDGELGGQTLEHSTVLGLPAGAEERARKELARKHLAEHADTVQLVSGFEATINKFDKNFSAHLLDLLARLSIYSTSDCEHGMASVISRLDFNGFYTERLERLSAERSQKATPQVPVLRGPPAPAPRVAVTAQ
UniProt P68036, whole entry, looked up: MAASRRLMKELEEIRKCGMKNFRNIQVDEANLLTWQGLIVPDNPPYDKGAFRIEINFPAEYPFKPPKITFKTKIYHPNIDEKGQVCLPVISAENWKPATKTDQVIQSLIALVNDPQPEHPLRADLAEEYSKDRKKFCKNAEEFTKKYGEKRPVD
UniProt Q3KQV9: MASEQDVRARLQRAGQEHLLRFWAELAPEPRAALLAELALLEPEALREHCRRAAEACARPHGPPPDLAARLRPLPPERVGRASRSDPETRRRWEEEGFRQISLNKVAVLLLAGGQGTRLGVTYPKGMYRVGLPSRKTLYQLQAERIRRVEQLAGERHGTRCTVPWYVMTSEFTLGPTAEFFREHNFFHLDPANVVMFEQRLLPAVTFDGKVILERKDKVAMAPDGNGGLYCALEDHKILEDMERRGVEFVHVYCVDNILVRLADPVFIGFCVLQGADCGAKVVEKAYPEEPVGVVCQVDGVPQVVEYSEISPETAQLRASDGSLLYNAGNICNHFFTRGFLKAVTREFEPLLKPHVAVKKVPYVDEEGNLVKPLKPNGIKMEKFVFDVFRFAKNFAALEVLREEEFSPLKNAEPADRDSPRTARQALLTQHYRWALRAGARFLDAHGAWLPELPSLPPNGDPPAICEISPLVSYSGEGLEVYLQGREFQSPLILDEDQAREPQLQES
UniProt Q12792, whole entry, looked up: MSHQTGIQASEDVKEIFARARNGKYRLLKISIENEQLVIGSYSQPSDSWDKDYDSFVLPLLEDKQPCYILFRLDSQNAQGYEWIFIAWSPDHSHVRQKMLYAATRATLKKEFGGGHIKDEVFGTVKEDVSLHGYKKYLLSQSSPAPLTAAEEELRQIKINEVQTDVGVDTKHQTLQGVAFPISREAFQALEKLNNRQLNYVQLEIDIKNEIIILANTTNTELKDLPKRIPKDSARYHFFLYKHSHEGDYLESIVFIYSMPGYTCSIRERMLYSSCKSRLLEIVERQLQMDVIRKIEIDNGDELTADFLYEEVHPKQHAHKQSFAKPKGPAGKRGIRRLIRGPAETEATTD
UniProt Q9P2K2: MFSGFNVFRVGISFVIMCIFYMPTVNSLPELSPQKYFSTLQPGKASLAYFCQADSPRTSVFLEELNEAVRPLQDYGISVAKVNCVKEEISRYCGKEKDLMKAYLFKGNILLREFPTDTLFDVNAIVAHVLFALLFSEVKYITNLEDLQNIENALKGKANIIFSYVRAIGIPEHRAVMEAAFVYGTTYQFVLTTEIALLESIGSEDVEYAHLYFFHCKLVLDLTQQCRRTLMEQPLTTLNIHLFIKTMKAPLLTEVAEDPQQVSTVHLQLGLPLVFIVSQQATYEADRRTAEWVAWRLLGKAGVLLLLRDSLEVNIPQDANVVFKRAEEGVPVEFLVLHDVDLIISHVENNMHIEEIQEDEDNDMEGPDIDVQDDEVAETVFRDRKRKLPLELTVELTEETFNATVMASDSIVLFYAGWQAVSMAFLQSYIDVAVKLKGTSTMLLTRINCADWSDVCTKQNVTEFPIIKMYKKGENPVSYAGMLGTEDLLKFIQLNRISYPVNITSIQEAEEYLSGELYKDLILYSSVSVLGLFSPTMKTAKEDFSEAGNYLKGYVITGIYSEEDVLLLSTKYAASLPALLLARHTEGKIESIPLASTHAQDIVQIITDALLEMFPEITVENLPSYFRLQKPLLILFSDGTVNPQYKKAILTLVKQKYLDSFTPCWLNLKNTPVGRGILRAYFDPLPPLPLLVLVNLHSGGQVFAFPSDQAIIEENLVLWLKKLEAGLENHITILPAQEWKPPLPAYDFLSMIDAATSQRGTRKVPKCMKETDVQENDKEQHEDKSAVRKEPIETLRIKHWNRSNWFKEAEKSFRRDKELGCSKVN
UniProt O60637: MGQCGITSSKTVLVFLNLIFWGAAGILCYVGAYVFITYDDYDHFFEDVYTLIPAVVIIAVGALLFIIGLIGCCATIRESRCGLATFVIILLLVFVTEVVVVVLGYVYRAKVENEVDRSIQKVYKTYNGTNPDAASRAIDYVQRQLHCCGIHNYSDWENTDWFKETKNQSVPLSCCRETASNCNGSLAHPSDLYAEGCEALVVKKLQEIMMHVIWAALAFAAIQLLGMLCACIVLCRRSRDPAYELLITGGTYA
UniProt Q9H4B7, whole entry, looked up: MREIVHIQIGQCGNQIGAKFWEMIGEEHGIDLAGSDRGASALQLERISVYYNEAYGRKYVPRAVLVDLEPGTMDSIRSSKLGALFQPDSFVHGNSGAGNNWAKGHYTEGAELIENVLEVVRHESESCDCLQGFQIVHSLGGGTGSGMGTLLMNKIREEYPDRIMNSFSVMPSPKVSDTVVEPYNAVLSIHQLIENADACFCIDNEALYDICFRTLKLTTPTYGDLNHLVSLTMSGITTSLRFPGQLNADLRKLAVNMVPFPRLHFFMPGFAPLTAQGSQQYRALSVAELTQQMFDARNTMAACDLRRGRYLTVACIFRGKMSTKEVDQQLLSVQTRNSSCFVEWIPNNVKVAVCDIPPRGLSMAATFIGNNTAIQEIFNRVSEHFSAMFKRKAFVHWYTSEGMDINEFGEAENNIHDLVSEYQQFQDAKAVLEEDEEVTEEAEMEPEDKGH
UniProt Q15631: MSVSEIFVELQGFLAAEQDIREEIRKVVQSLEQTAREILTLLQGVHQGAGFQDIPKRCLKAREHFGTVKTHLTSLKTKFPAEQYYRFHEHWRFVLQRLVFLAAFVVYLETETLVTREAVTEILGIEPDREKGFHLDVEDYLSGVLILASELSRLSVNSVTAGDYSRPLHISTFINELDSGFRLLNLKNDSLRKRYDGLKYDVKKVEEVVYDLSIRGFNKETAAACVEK
UniProt Q6IPR3: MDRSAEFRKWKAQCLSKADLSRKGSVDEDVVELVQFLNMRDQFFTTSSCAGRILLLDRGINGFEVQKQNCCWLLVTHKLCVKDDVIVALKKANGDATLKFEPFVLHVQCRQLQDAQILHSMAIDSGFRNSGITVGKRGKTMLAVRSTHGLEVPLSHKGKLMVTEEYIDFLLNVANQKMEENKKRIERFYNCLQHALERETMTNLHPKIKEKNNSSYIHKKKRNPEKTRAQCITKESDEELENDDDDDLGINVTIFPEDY
UniProt Q9BUF5, whole entry, looked up: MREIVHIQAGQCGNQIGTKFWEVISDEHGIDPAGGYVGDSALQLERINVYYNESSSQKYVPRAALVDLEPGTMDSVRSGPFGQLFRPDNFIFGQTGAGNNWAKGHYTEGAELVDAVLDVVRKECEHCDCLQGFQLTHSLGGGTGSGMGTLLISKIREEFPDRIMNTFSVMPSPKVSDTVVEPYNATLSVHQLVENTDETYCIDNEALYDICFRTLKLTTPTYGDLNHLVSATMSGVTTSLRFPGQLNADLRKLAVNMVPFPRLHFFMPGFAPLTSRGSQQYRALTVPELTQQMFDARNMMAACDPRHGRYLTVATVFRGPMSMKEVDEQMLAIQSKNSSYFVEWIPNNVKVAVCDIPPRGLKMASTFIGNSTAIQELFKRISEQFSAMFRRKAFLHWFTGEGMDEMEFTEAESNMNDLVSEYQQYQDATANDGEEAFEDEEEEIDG
UniProt P83876: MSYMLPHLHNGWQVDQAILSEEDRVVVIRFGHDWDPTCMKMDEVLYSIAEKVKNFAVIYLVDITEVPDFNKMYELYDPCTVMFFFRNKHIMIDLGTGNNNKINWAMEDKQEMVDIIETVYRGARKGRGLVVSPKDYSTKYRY

Some of the results follow.

Compound in one assay: CN1CCc2c(c3ccccc3n2Cc2ccc(C(=O)NO)cc2)C1 [Tubastatin A]
Kind of assay: log2 fold change, soluble protein after heating vs DMSO (PISA); higher = thermal stabilisation; K562 cells, 10 uM, 30 min; active = over 0.2 and 3.5 SD of the protein, either way, in both replicates (recomputed). An outline of the steps: (§1)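 For each measurement, 10 μM compound was applied for 30 min to K562 cells at 2×10^6 cells/mL. Aliquots were heated for 3 min across 48°C-58°C, pooled, and extracted in PBS with 0.5% NP-40 at 4°C; the supernatant after 21,000xg for 90 min was soluble protein. This was quantified by TMTpro 16plex LC-MS/MS with channel sums equalised, and thermal stability was reported relative to control samples from duplicates, on a log2 fold-change scale.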
Regarding TSR1 (UniProt Q2NL82), the log2 fold change is inactive: 0.2. The same measure, in the same setting: the result for TUBB6 (UniProt K7ES63) reads inactive: -0.035; that for TSPAN14 (UniProt Q8NG11), inactive: -0.052. On the same count and under the same terms, the value for TWF2 (UniProt Q6IBS0) was inactive: -0.017; that for TUBB2B (UniProt Q9BVA1) was inactive: -0.062. The same measure, in the same setting: the value for TXLNG (UniProt Q9NUQ3) was inactive: -0.021.

Regarding TXNDC15 (UniProt Q96J42), the log2 fold change was inactive: 0.074. Still for that read-out and setting: the result for TTPAL (UniProt Q9BTX7) reads inactive: 0.003. With TTC1 (UniProt Q99614), the log2 fold change was inactive: 0.007. On the same count and under the same terms, the result for TSTA3 (UniProt Q13630) reads inactive: -0.01; that for TTC7B isoform 2 (UniProt Q86TV6), inactive: 0.076. As for TUBE1 (UniProt Q9UJT0), the log2 fold change was inactive: 0.051. As for UBE2F isoform 2 (UniProt Q969M7), the log2 fold change is inactive: 0.063. In the case of UBE2A (UniProt P49459), the log2 fold change is inactive: 0. On the same count and under the same terms, the value for TTC27 (UniProt Q6P3X3) was inactive: 0.057; that for TTC13 (UniProt Q8NBP0) was inactive: 0.015. As for TUBA1B (UniProt P68363), the log2 fold change is inactive: -0.048.

Compound in a further assay: CNC(=O)C1=CC=CC=C1NC2=NC(=NC=C2Cl)NC3=C(C=C(C=C3)N4CCOCC4)OC
Described as above. An outline of the steps:
as §1
Turning to TUBGCP2 isoform 4 (UniProt Q9BSJ2), the log2 fold change is inactive: -0.04.

For UBE2L3 isoform 3 (UniProt P68036), the log2 fold change was inactive: -0.027. UBE2M (UniProt P61081): the log2 fold change was inactive: 0.018. Take U2SURP (UniProt O15042): the log2 fold change is inactive: -0.102.

As for UAP1L1 (UniProt Q3KQV9), the log2 fold change is inactive: -0.061. On the same count and under the same terms, the value for TUBA3C (UniProt P0DPH7) was inactive: -0.03. On the same count and under the same terms, the value for TWF1 (UniProt Q12792) was inactive: 0.05; that for TXNDC16 (UniProt Q9P2K2) was inactive: -0.015.

Regarding UBE2N (UniProt P61088), the log2 fold change is inactive: -0.027. On the same count and under the same terms, the value for TSPAN3 (UniProt O60637) was inactive: -0.001. On the same count and under the same terms, the result for UBA5 (UniProt Q9GZZ9) reads inactive: -0.004. The same measure, in the same setting: the value for TUBB4A (UniProt M0QYM7) was inactive: 0.036.

As to UBE2Z (UniProt Q9H832), the log2 fold change was inactive: 0.012. Consider TTN isoform 12 (UniProt Q8WZ42), for which the log2 fold change is inactive: -0.039. On the same count and under the same terms, the result for TUBB1 (UniProt Q9H4B7) reads inactive: -0.053; that for TSN (UniProt Q15631), inactive: -0.038; that for TYW3 (UniProt Q6IPR3), inactive: -0.044. In the case of UBE2D3 isoform 3 (UniProt P61077), the log2 fold change was inactive: 0.023.

For the target UBE2K (UniProt P61086), the log2 fold change is inactive: 0.011.

For TTC19 (UniProt Q6DKK2), the log2 fold change is inactive: -0.008. As for UAP1 (UniProt Q16222), the log2 fold change is inactive: 0.116. The same measure, in the same setting: the result for TUBB6 (UniProt Q9BUF5) reads inactive: -0.067; that for TXNL4A (UniProt P83876), inactive: -0.026. On the same count and under the same terms, the result for TSR1 (UniProt Q2NL82) reads inactive: -0.027. Same read-out and setting: the value for TUBB6 (UniProt K7ES63) was inactive: -0.015; that for TSPAN14 (UniProt Q8NG11) was inactive: -0.06; that for TWF2 (UniProt Q6IBS0) was inactive: 0.043. TUBB2B (UniProt Q9BVA1): the log2 fold change was inactive: -0.048.

TXLNG (UniProt Q9NUQ3): the log2 fold change was inactive: -0.027.

For the target TXNDC15 (UniProt Q96J42), the log2 fold change was inactive: -0.038. As to TTPAL (UniProt Q9BTX7), the log2 fold change is inactive: -0.108.

Consider TTC1 (UniProt Q99614), for which the log2 fold change is inactive: -0.004.

On to TSTA3 (UniProt Q13630), for which the log2 fold change is inactive: -0.054. Still for that read-out and setting: the result for TTC7B isoform 2 (UniProt Q86TV6) reads inactive: 0.029; that for TUBE1 (UniProt Q9UJT0), inactive: -0.028.

For UBE2F isoform 2 (UniProt Q969M7), the log2 fold change was inactive: 0.038. Still for that read-out and setting: the value for UBE2A (UniProt P49459) was inactive: -0.003; that for TTC27 (UniProt Q6P3X3) was inactive: -0.061. For the target TTC13 (UniProt Q8NBP0), the log2 fold change is inactive: -0.035.

Regarding TUBA1B (UniProt P68363), the log2 fold change is inactive: -0.07.
